These are yes or no findings as the source states them, for the method shown. In cells and extracts the contact can be indirect. These calls come from enrichment with a bait or labelling near it, and not all partners need be listed.
Molecular target: Myc-tagged human ankyrin repeat and SOCS box protein 9 (ASB9) (human) (UniProt Q96DX5)
Assay: affinity purification with mass spectrometry; anti-Myc immunoprecipitates from lysates of HEK293 cells stably expressing null, Myc-tagged ASB9 or ASB9ΔSOCS; SDS-PAGE, Coomassie G-250, in-gel trypsin digestion of bands, ESI-TOF MS/MS

Sequences of proteins named here, by UniProt entry; tags and fusion partners are left off.
UniProt Q96DX5: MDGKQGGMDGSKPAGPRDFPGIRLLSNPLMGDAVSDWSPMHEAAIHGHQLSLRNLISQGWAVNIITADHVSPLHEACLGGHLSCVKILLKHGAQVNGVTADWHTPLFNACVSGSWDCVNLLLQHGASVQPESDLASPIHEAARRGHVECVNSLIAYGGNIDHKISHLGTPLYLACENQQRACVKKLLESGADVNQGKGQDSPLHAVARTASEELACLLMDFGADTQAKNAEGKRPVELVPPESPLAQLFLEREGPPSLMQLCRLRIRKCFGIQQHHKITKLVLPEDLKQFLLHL

## ubiquitous mitochondrial creatine kinase (uMtCK), endogenous (from UniProt P12532 40-417) (enzyme)
  binding: binds

Source: publication PMC2852384
